Measured values as given in publication PMC7849764.
No constants are given. Whether binding was seen depends on the method and setting. Binding seen in cells or lysates may run through a third protein.

By UniProt entry, the sequences of proteins in these tests, tags left out.
UniProt Q13158: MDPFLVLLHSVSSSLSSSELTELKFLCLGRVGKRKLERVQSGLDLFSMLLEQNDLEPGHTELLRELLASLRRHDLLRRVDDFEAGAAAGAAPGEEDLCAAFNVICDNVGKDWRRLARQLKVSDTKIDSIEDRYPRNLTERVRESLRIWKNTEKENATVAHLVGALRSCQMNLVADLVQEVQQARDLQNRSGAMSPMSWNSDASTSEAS
UniProt Q14790: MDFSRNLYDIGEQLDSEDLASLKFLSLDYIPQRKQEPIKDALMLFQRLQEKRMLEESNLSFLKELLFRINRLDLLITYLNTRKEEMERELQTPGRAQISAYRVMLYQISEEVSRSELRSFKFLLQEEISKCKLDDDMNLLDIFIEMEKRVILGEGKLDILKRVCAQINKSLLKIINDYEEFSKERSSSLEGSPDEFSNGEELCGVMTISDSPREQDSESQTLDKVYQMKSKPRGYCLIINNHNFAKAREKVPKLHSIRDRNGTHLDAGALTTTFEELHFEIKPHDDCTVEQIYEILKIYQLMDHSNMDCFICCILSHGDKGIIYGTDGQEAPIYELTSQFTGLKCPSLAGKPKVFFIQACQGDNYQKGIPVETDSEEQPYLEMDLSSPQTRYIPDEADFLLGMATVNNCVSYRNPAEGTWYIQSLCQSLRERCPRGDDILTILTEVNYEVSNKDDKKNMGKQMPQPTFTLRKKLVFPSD

What was measured:
[1] = biological target: Fas-associated protein with death domain (FADD) (human (endogenous in MDA-MB-231)) (UniProt Q13158); assay: co-IP; anti-FADD co-IP from MDA-MB-231 cells co-treated with purified RL2 and TRAIL for three hours; blot for RL2; only the binder purified
[2] = biological target: procaspase-8a/b (p55/p53) (human (endogenous in MDA-MB-231)) (UniProt Q14790); assay: as above
[3] = biological target: Fas-associated protein with death domain (FADD) (human (endogenous in MDA-MB-231)) (UniProt Q13158); assay: co-IP; anti-caspase-8 co-IP from MDA-MB-231 cells co-treated with purified RL2 and TRAIL for three hours; blot for RL2; only the binder purified
[4] = biological target: procaspase-8a/b (p55/p53) (human (endogenous in MDA-MB-231)) (UniProt Q14790); assay: as above

Measured: binding

B1: RL2 (recombinant lactaptin 2), a recombinant fragment of human κ-Casein (domain or fragment, UniProt P07498 23-134)
chain: QNQKQPACHENDERPFYQKTAPYVPMYYVPNSYPYYGTNLYQRRPAIAINNPYVPRTYYANPAVVRPHAQIPQRQYLPNSHPPTVVRRPNLHPSFIAIPPKKIQDKIIIPTI
no binding: [1] | [2] | [3] | [4]
